Earlier results as cited in patent publication US20080003262A1, “COMPOSITIONS AND THERAPEUTIC METHODS OF USE” (DrugTech Corporation, priority 2006, published 2008).
For at least one compound, name, drawing or mass did not settle the structure.

Columns and labels:
DIV = details: intravaginal 2% clindamycin cream or 10% hydrocortisone
patients with DIV = details: 2% topical clindamycin in suppository form, retrospective study
vulvar vestibulitis = details: topical clindamycin cream

SMILES: CCC[C@@H]1C[C@@H](C(=O)N[C@@H]([C@H]2O[C@H](SC)[C@H](O)[C@@H](O)[C@H]2O)[C@H](C)Cl)N(C)C1 [clindamycin]
- Response of DIV to treatment (DIV): responds
- Clinical improvement, share of patients (patients with DIV): more than 95%
- Relapse, share of patients (patients with DIV): 30%
- Results of treatment of vulvar vestibulitis (vulvar vestibulitis): variable results
